For at least one compound, name, drawing or mass did not settle the structure.
Key:
[1] = test system: diabetes induced by STZ in SD rats; assay: Treatment of diabetes induced by STZ in rats; format: in vivo, Sprague-Dawley rat; details: Group B rats, STZ 60 mg/kg model, versus untreated Group A
Description: The effects of exemplary cyclohexnone compound 1 in treating a subject suffering from diabetes were investigated in a Sprague-Dawley rat model over a four week period. The example describes the results of such experiments.
In vivo models. A rat model of diabetes was established by low-dose streptozotocin (STZ, 60 mg/kg) injection in SD rats. Rats of the same batch fed with normal chow (NRC) were used as a control (n=4).
Study group. Group A: diabetes without treatment group, n=6; Group B: AopE+STZ+Compound 1, n=4. […] Rats of Group B (treatment group) have the following blood sugar data before meals: […]

[2] = test system: subjects with type 2 diabetes mellitus; assay: Efficacy and safety in adult subjects with type 2 diabetes mellitus (clinical study); format: in vivo, human; details: 50, 100 or 200 mg QD orally, up to 12 weeks
[3] = test system: patients with type 1 diabetes; assay: Blood glucose control in patients with type 1 diabetes (clinical study); format: in vivo, human; details: 100 mg once a day, 16 weeks, versus sugar pill

COC1=C(OC)C(O)C(C/C=C(\C)CC/C=C(\C)CCC=C(C)C)C(C)C1=O (stereo not drawn) [Compound 1, 4-hydroxy-2,3-dimethoxy-6-methyl-5-(3,7,11-trimethyldodeca-2,6,10-trienyl)cyclohex-2-enone]
diabetes symptoms [1]: decreased diabetes symptoms: less glucose in urine, less urine and weight loss
results of patients taking Compound 1 for type 2 diabetes treatment [2]: clinically significant
results of patients taking Compound 1 for type 1 diabetes treatment [3]: clinically significant
